Assay results published in the supplement of paper PMC7666118.
The list shows a part of the results.

By UniProt entry, the sequences of proteins in these tests, tags left out. Where a name states a change or a piece, a line headed by the entry shows the natural chain unless it says otherwise.
UniProt Q14997: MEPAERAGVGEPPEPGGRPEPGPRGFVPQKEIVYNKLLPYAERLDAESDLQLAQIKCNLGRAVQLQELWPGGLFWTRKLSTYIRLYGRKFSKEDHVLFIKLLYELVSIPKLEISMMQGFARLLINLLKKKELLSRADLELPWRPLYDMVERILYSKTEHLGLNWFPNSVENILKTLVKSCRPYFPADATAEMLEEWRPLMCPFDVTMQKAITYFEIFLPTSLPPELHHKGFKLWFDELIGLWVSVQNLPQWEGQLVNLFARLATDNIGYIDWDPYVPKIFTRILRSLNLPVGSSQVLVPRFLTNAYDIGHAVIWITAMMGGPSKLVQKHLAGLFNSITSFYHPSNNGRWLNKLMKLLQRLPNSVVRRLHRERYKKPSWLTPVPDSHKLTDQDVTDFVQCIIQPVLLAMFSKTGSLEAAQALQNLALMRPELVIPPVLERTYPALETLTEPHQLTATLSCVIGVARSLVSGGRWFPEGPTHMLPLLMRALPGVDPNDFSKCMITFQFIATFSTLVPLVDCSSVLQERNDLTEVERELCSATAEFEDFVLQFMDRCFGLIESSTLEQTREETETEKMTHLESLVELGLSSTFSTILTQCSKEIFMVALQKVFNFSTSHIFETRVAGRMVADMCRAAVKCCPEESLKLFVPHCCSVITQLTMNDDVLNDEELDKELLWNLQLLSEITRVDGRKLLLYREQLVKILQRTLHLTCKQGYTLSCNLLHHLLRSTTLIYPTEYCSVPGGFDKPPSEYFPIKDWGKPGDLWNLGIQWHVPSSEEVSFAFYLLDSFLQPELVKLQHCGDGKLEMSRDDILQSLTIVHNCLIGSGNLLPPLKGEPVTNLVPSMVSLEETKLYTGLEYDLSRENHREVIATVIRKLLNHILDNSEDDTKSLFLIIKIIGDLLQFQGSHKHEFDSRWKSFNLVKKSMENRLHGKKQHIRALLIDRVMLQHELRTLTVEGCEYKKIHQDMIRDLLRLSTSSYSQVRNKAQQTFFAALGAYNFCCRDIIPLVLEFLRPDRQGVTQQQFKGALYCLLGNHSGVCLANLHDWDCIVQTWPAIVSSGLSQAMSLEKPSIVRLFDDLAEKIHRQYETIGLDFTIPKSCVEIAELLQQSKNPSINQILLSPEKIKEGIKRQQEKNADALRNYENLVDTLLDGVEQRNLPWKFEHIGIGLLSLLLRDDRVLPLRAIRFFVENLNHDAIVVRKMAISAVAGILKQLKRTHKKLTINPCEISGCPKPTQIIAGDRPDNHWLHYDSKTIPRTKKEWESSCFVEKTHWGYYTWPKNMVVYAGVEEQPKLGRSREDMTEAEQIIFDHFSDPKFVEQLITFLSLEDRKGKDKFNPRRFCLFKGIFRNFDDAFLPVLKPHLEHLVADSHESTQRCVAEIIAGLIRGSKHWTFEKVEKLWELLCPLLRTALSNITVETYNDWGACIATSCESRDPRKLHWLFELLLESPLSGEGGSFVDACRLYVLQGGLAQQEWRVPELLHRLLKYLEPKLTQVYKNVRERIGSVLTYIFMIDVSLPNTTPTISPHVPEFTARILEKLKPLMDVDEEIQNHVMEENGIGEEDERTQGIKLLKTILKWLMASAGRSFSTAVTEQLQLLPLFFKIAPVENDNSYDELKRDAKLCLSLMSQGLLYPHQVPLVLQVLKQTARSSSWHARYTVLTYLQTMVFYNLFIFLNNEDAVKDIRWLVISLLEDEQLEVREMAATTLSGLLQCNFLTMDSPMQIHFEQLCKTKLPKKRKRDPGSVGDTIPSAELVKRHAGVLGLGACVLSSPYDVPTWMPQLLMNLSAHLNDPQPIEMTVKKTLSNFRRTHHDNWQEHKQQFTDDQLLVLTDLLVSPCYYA
UniProt P41247: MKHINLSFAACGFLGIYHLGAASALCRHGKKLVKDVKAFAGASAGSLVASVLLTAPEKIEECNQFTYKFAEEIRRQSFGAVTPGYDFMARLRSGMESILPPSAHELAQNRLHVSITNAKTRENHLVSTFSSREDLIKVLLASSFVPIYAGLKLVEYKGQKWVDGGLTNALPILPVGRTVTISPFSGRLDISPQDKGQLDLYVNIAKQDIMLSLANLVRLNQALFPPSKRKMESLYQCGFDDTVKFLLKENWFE
UniProt P24158: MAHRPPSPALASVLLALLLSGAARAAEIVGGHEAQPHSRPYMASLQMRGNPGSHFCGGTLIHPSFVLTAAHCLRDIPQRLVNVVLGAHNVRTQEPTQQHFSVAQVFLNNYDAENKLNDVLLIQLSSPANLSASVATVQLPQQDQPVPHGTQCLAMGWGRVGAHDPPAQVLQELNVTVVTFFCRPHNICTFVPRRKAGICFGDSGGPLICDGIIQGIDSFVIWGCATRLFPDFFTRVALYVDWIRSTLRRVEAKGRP
UniProt Q12972: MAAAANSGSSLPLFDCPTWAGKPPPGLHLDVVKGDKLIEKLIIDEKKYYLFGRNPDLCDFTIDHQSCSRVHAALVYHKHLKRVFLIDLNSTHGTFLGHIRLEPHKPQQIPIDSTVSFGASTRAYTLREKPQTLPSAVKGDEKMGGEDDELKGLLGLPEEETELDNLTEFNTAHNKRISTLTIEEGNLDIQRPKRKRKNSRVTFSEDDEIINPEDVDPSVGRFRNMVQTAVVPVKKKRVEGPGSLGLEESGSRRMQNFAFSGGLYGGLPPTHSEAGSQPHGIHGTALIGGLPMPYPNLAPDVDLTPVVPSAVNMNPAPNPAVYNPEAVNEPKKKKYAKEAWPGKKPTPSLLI
UniProt Q8IY17: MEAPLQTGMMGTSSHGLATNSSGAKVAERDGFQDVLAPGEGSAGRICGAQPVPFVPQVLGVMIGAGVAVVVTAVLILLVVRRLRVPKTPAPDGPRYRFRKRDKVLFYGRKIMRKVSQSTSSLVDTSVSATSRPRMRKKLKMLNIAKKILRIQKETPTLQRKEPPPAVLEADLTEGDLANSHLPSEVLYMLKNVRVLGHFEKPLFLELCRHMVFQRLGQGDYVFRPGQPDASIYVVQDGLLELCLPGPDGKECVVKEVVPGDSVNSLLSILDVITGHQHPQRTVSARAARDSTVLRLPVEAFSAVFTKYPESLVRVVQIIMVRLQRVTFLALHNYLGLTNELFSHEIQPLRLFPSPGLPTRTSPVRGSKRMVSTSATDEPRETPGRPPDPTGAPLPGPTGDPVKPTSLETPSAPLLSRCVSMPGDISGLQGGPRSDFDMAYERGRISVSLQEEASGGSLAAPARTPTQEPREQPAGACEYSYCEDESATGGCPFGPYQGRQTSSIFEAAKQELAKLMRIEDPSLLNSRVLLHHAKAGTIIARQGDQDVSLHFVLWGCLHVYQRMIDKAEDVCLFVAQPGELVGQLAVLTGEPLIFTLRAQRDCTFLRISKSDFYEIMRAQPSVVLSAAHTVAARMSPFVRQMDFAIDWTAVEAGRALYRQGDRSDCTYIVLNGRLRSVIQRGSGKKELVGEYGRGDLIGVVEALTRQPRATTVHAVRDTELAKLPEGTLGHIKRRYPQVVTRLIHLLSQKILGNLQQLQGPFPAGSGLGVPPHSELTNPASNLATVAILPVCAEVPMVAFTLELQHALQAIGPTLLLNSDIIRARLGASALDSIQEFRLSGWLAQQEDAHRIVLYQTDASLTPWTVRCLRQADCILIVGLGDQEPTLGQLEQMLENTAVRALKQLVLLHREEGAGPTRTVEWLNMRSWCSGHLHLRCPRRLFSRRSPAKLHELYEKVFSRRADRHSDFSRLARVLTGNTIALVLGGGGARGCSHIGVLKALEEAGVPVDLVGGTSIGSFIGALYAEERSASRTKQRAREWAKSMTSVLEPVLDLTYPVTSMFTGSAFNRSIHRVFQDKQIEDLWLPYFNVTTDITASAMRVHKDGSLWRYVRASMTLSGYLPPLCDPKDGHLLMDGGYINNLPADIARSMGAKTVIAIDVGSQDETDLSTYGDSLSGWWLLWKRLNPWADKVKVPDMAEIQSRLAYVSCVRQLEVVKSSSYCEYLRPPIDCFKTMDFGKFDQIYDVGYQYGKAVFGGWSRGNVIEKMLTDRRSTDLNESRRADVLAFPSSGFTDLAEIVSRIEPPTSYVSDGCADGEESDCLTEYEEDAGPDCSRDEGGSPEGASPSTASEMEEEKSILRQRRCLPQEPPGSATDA
UniProt O94906: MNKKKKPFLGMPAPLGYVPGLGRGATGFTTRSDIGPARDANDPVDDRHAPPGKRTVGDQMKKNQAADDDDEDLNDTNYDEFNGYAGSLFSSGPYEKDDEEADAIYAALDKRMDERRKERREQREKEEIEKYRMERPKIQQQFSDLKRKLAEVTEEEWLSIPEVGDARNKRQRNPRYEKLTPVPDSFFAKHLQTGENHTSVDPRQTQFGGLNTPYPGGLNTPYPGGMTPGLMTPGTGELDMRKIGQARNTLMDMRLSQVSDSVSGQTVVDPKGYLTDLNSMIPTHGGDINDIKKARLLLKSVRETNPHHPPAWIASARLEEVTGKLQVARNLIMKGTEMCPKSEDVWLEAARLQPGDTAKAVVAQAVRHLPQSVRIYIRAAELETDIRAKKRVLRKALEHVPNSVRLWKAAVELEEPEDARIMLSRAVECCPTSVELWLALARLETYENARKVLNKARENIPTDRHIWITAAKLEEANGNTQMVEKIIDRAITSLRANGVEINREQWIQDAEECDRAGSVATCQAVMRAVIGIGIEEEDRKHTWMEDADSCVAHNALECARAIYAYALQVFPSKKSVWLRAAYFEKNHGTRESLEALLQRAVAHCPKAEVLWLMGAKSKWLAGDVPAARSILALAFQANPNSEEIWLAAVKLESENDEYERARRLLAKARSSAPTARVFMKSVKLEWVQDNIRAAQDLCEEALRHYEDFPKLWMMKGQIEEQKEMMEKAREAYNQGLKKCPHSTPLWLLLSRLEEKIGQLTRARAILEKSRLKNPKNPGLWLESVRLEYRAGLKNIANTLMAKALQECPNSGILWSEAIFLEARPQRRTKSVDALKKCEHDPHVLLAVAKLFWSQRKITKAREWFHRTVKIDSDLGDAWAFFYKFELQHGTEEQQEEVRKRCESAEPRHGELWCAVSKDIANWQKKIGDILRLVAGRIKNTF
UniProt Q9NUX5: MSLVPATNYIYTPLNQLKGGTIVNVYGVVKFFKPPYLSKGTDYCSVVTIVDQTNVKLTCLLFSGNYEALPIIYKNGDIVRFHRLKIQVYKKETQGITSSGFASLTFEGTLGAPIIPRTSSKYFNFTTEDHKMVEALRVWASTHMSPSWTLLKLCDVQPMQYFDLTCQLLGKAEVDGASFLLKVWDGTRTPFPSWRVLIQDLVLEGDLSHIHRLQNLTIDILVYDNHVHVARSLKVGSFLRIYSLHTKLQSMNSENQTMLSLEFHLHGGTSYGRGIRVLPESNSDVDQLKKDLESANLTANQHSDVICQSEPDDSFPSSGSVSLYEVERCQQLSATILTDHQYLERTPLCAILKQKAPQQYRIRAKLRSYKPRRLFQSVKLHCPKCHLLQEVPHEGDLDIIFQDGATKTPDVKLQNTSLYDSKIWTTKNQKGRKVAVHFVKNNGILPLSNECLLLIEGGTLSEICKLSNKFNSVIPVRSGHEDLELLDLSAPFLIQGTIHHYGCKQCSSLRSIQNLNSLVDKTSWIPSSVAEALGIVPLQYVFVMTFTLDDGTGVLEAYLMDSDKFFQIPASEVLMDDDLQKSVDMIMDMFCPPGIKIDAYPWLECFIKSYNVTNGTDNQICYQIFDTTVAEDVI
UniProt P30048: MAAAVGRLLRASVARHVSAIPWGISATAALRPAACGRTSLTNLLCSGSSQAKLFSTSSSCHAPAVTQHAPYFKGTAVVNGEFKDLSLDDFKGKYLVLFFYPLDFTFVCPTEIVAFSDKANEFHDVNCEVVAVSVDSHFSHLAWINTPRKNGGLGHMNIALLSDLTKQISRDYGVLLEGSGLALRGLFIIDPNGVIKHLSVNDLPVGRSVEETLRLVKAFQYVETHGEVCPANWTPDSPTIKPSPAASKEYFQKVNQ
UniProt Q96BW5: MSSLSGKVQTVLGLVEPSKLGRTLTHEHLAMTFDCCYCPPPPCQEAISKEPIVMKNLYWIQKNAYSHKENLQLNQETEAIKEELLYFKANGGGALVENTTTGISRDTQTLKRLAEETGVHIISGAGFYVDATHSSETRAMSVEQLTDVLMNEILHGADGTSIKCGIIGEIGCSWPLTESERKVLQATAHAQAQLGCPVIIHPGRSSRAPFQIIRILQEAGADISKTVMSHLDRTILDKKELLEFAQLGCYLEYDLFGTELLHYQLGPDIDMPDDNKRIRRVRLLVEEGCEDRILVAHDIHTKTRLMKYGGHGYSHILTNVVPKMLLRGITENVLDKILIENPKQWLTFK
UniProt O95707: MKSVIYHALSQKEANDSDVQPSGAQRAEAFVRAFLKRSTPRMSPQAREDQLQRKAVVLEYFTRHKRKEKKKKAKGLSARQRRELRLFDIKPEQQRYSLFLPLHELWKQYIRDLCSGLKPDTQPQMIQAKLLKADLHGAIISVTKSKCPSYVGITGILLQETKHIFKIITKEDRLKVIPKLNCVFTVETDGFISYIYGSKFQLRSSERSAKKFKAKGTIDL

compound: COc1ccc(Cn2ccc3cc(C)c(C(=O)NO)cc32)cc1; assay: dose-dependent thermal stabilisation call (2D-TPP, DLPTP, 10% FDR) (binary (1 = stabilised)); higher = stabilised by the compound; conditions: system: HL-60 intact cells; concentration range 0.04-10 µM
Protocol: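 2D thermal proteome profiling in intact HL-60 cells treated with BRD-3811 (0, 0.04, 0.29, 2, 10 uM) for 90 min at 37 C, then heated 3 min at one of 12 temperatures (42-63.9 C). Soluble protein was quantified by TMT10 MS. The value is the DLPTP call of the paper: dose-dependent thermal stabilisation over all temperatures at 10% FDR (F-test of a dose-response against a flat model); one experiment, one call per tested protein.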

Row | Target | dose-dependent thermal stabilisation call
1 | PTEN (UniProt P60484) | inactive: 0
2 | POLR2E (UniProt P19388) | inactive: 0
3 | PRG2 (UniProt P13727) | inactive: 0
4 | PSME4 (UniProt Q14997) | inactive: 0
5 | PRIM1 (UniProt P49642) | inactive: 0
6 | PTPN2 (UniProt P17706) | inactive: 0
7 | PNPLA4 (UniProt P41247) | inactive: 0
8 | PTPN7 (UniProt P35236) | inactive: 0
9 | PTPLB (UniProt Q6Y1H2) | inactive: 0
10 | PRTN3 (UniProt P24158) | inactive: 0
11 | PRPS1 (UniProt P60891) | inactive: 0
12 | PPP1R8 (UniProt Q12972) | inactive: 0
13 | PRKCD (UniProt Q05655) | inactive: 0
14 | PSME1 (UniProt Q06323) | inactive: 0
15 | PPM1A (UniProt P35813) | inactive: 0
16 | POP5 (UniProt Q969H6) | inactive: 0
17 | PNPLA6 (UniProt Q8IY17) | inactive: 0
18 | PTK7 (UniProt Q13308) | inactive: 0
19 | PRPF6 (UniProt O94906) | inactive: 0
20 | POT1 (UniProt Q9NUX5) | inactive: 0
21 | PSMB9 (UniProt P28065) | inactive: 0
22 | PRMT6 (UniProt Q96LA8) | inactive: 0
23 | PRDX3 (UniProt P30048) | active: 1
24 | PTER (UniProt Q96BW5) | inactive: 0
25 | POP4 (UniProt O95707) | inactive: 0
26 | PTPN13 (UniProt Q12923) | inactive: 0
27 | POLD1 (UniProt P28340) | inactive: 0

Quoted at random: two records from the list.
Row | Target | dose-dependent thermal stabilisation call
5 | PRIM1 (UniProt P49642) | inactive: 0
8 | PTPN7 (UniProt P35236) | inactive: 0
